Measured values published in patent US20040170955A1 (University of Texas, published 2004).
Results are given in words; binding and its absence hold for the method and conditions named. Some entries that bind do so weakly or less than the wild type.

Protein sequences, listed by entry. Tags and fused reporters are not part of them. Residues count along the entry.
UniProt P05106, residues 742-788: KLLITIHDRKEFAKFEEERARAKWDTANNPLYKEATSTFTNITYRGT
UniProt P18084, residues 743-799: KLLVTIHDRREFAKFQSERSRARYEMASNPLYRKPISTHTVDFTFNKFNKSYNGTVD

B1: phage displaying YDWWYPWSW (SEQ ID NO:95) (peptide)
peptide: YDWWYPWSW
notes: whole phage tested
B2: phage displaying CFQNRC (SEQ ID NO:102) (peptide)
peptide: CFQNRC
B3: phage displaying SDNRYIGSW (SEQ ID NO:97) (peptide)
peptide: SDNRYIGSW
notes: whole phage tested
B4: phage displaying … (SEQ ID NO:93) (peptide)
peptide: CEQRQTQEGC
B5: phage displaying … (SEQ ID NO:104) (peptide)
peptide: CLRQSYSYNC
B6: phage displaying GLDTYRGSP (SEQ ID NO:96) (peptide)
peptide: GLDTYRGSP
notes: whole phage tested
B7: phage displaying … (SEQ ID NO:106) (peptide)
peptide: CEPYWDGWFC
B8: phage displaying VVISYSMPD (SEQ ID NO:112) (peptide)
peptide: VVISYSMPD
notes: whole phage tested
B9: phage displaying … (SEQ ID NO:105) (peptide)
peptide: CYIWPDSGLC
B10: phage displaying DEEGYYMMR (SEQ ID NO:110) (peptide)
peptide: DEEGYYMMR
notes: whole phage tested
B11: phage displaying KQFSYRYLL (SEQ ID NO:111) (peptide)
peptide: KQFSYRYLL
notes: whole phage tested

These binders were tested against GST-β3cyto (GST fusion protein of the β3 integrin cytoplasmic domain) (UniProt P05106) (assay: phage binding to coated GST fusion proteins, colony counts (FIG. 9)).
With B1 the binding was “binds”.
In the case of B2, the binding is reported as “binds”.
For B3, the binding was “binds”.
For B4, the binding was “binds”.
In the case of B5, the binding is reported as “binds”.
In the case of B6, the binding is reported as “binds”.

Each binder was assayed against GST-β5cyto (GST fusion protein of the β5 integrin cytoplasmic domain) (UniProt P18084) (assay: phage binding to coated GST fusion proteins, colony counts (FIG. 10)).
In the case of B7, the binding is reported as “binds”.
For B8, the binding was “binds”.
With B9 the binding was “binds”.
With B10 the binding was “binds”.
In the case of B11, the binding is reported as “binds”.
